Results published in PubChem BioAssay AID188 (DTP/NCI, 2004).
The mice bore no tumour; each value counts animals alive of those treated. Survivors were counted at the toxicity check, usually on the fifth day, unless a day is given; later deaths do not show. Schedule codes are those of the source, taken here to give the interval after Q, in days (D) or hours (H), and the number of doses after X. Marks such as (2×) count equal records among those shown. Some entries were tested several times; their values stand side by side, smallest first.

Tested on: CD2F1 mice, nontumored, toxicity/survival
Assay: NCI In Vivo Anticancer Drug Screen. Data for tumor model Nontumored Animals (Toxicity Test) in CD2F1 (CDF1) mice

## Nc1nncs1
dose: 4.0 mg/kg/injection, schedule: Q03HX024 (ip), vehicle: alkali diluted with saline
  survivor count: 8 of 8
dose: 8.0 mg/kg/injection, schedule: Q03HX008 (ip), vehicle: alkali diluted with saline
  survivor count: 8 of 8
dose: 8.0 mg/kg/injection, schedule: Q03HX016 (ip), vehicle: alkali diluted with saline
  survivor count: 8 of 8
dose: 8.0 mg/kg/injection, schedule: Q03HX024 (ip), vehicle: alkali diluted with saline
  survivor count: 8 of 8
dose: 16.0 mg/kg/injection, schedule: Q01DX005 (iv), vehicle: alkali diluted with saline
  survivor count: 8 of 8
dose: 16.0 mg/kg/injection, schedule: Q01DX009 (ip), vehicle: alkali diluted with saline
  survivor count: 8 of 8
dose: 16.0 mg/kg/injection, schedule: Q01DX009 (sc), vehicle: alkali diluted with saline
  survivor count: 8 of 8
dose: 16.0 mg/kg/injection, schedule: Q03HX008 (ip), vehicle: alkali diluted with saline
  survivor count: 8 of 8
dose: 16.0 mg/kg/injection, schedule: Q03HX016 (ip), vehicle: alkali diluted with saline
  survivor count: 8 of 8
dose: 16.0 mg/kg/injection, schedule: Q03HX024 (ip), vehicle: alkali diluted with saline
  survivor count: 8 of 8
dose: 32.0 mg/kg/injection, schedule: Q01DX001 (iv), vehicle: alkali diluted with saline
  survivor count: 8 of 8
dose: 32.0 mg/kg/injection, schedule: Q01DX005 (iv), vehicle: alkali diluted with saline
  survivor count: 8 of 8
dose: 32.0 mg/kg/injection, schedule: Q01DX009 (ip), vehicle: alkali diluted with saline
  survivor count: 8 of 8
dose: 32.0 mg/kg/injection, schedule: Q01DX009 (sc), vehicle: alkali diluted with saline
  survivor count: 8 of 8
dose: 32.0 mg/kg/injection, schedule: Q03HX008 (ip), vehicle: alkali diluted with saline
  survivor count: 8 of 8
dose: 32.0 mg/kg/injection, schedule: Q03HX016 (ip), vehicle: alkali diluted with saline
  survivor count: 8 of 8
dose: 32.0 mg/kg/injection, schedule: Q03HX024 (ip), vehicle: alkali diluted with saline
  survivor count: 7 of 8
dose: 32.0 mg/kg/injection, schedule: Q04DX003 (ip), vehicle: alkali diluted with saline
  survivor count: 8 of 8
dose: 64.0 mg/kg/injection, schedule: Q01DX001 (ip), vehicle: alkali diluted with saline
  survivor count: 8 of 8
dose: 64.0 mg/kg/injection, schedule: Q01DX001 (iv), vehicle: alkali diluted with saline
  survivor count: 8 of 8
dose: 64.0 mg/kg/injection, schedule: Q01DX001 (oral), vehicle: alkali diluted with saline
  survivor count: 6 of 8
dose: 64.0 mg/kg/injection, schedule: Q01DX001 (sc), vehicle: alkali diluted with saline
  survivor count: 8 of 8
dose: 64.0 mg/kg/injection, schedule: Q01DX005 (iv), vehicle: alkali diluted with saline
  survivor count: 8 of 8
dose: 64.0 mg/kg/injection, schedule: Q01DX009 (ip), vehicle: alkali diluted with saline
  survivor count: 8 of 8
dose: 64.0 mg/kg/injection, schedule: Q01DX009 (oral), vehicle: alkali diluted with saline
  survivor count: 8 of 8
dose: 64.0 mg/kg/injection, schedule: Q01DX009 (sc), vehicle: alkali diluted with saline
  survivor count: 8 of 8
dose: 64.0 mg/kg/injection, schedule: Q03HX008 (ip), vehicle: alkali diluted with saline
  survivor count: 8 of 8
dose: 64.0 mg/kg/injection, schedule: Q03HX016 (ip), vehicle: alkali diluted with saline
  survivor count: 7 of 8
dose: 64.0 mg/kg/injection, schedule: Q03HX024 (ip), vehicle: alkali diluted with saline
  survivor count: 5 of 8
dose: 64.0 mg/kg/injection, schedule: Q04DX003 (ip), vehicle: alkali diluted with saline
  survivor count: 8 of 8
dose: 64.0 mg/kg/injection, schedule: Q08DX002 (ip), vehicle: alkali diluted with saline
  survivor count: 8 of 8
dose: 128.0 mg/kg/injection, schedule: Q01DX001 (ip), vehicle: alkali diluted with saline
  survivor count: 8 of 8
dose: 128.0 mg/kg/injection, schedule: Q01DX001 (iv), vehicle: alkali diluted with saline
  survivor count: 8 of 8
dose: 128.0 mg/kg/injection, schedule: Q01DX001 (oral), vehicle: alkali diluted with saline
  survivor count: 7 of 8
dose: 128.0 mg/kg/injection, schedule: Q01DX001 (sc), vehicle: alkali diluted with saline
  survivor count: 8 of 8
dose: 128.0 mg/kg/injection, schedule: Q01DX005 (iv), vehicle: alkali diluted with saline
  survivor count: 8 of 8
dose: 128.0 mg/kg/injection, schedule: Q01DX009 (ip), vehicle: alkali diluted with saline
  survivor count: 8 of 8
dose: 128.0 mg/kg/injection, schedule: Q01DX009 (oral), vehicle: alkali diluted with saline
  survivor count: 5 of 8
dose: 128.0 mg/kg/injection, schedule: Q01DX009 (sc), vehicle: alkali diluted with saline
  survivor count: 8 of 8
dose: 128.0 mg/kg/injection, schedule: Q03HX008 (ip), vehicle: alkali diluted with saline
  survivor count: 7 of 8
dose: 128.0 mg/kg/injection, schedule: Q03HX016 (ip), vehicle: alkali diluted with saline
  survivor count: 8 of 8
dose: 128.0 mg/kg/injection, schedule: Q04DX003 (ip), vehicle: alkali diluted with saline
  survivor count: 8 of 8
dose: 128.0 mg/kg/injection, schedule: Q08DX002 (ip), vehicle: alkali diluted with saline
  survivor count: 8 of 8
dose: 256.0 mg/kg/injection, schedule: Q01DX001 (ip), vehicle: alkali diluted with saline
  survivor count: 8 of 8
dose: 256.0 mg/kg/injection, schedule: Q01DX001 (iv), vehicle: alkali diluted with saline
  survivor count: 8 of 8
dose: 256.0 mg/kg/injection, schedule: Q01DX001 (oral), vehicle: alkali diluted with saline
  survivor count: 5 of 8
dose: 256.0 mg/kg/injection, schedule: Q01DX001 (sc), vehicle: alkali diluted with saline
  survivor count: 8 of 8
dose: 256.0 mg/kg/injection, schedule: Q01DX005 (iv), vehicle: alkali diluted with saline
  survivor count: 4 of 8
dose: 256.0 mg/kg/injection, schedule: Q01DX009 (ip), vehicle: alkali diluted with saline
  survivor count: 5 of 8
dose: 256.0 mg/kg/injection, schedule: Q01DX009 (oral), vehicle: alkali diluted with saline
  survivor count: 3 of 8
dose: 256.0 mg/kg/injection, schedule: Q01DX009 (sc), vehicle: alkali diluted with saline
  survivor count: 6 of 8
dose: 256.0 mg/kg/injection, schedule: Q04DX003 (ip), vehicle: alkali diluted with saline
  survivor count: 8 of 8
dose: 256.0 mg/kg/injection, schedule: Q08DX002 (ip), vehicle: alkali diluted with saline
  survivor count: 8 of 8
dose: 512.0 mg/kg/injection, schedule: Q01DX001 (ip), vehicle: alkali diluted with saline
  survivor count: 8 of 8
dose: 512.0 mg/kg/injection, schedule: Q01DX001 (iv), vehicle: alkali diluted with saline
  survivor count: 8 of 8
dose: 512.0 mg/kg/injection, schedule: Q01DX001 (oral), vehicle: alkali diluted with saline
  survivor count: 6 of 8
dose: 512.0 mg/kg/injection, schedule: Q01DX001 (sc), vehicle: alkali diluted with saline
  survivor count: 8 of 8
dose: 512.0 mg/kg/injection, schedule: Q01DX009 (oral), vehicle: alkali diluted with saline
  survivor count: 1 of 8
dose: 512.0 mg/kg/injection, schedule: Q04DX003 (ip), vehicle: alkali diluted with saline
  survivor count: 8 of 8
dose: 512.0 mg/kg/injection, schedule: Q08DX002 (ip), vehicle: alkali diluted with saline
  survivor count: 8 of 8
dose: 1024.0 mg/kg/injection, schedule: Q01DX001 (ip), vehicle: alkali diluted with saline
  survivor count: 8 of 8
dose: 1024.0 mg/kg/injection, schedule: Q01DX001 (oral), vehicle: alkali diluted with saline
  survivor count: 8 of 8
dose: 1024.0 mg/kg/injection, schedule: Q01DX001 (sc), vehicle: alkali diluted with saline
  survivor count: 8 of 8
dose: 1024.0 mg/kg/injection, schedule: Q01DX009 (oral), vehicle: alkali diluted with saline
  survivor count: 1 of 8
dose: 1024.0 mg/kg/injection, schedule: Q08DX002 (ip), vehicle: alkali diluted with saline
  survivor count: 8 of 8

## O=NN(CCCl)C(=O)NCCCl
dose: 5.0 mg/kg/injection, schedule: Q04DX003 (ip), vehicle: saline + alcohol
  survivor count: 4 of 4
dose: 7.5 mg/kg/injection, schedule: Q01DX001 (ip), vehicle: saline + alcohol
  survivor count: 8 of 8
dose: 8.0 mg/kg/injection, schedule: Q01DX001 (ip), vehicle: saline + alcohol
  survivor count: 4 of 4
dose: 10.0 mg/kg/injection, schedule: Q04DX003 (ip), vehicle: saline + alcohol
  survivor count: 4 of 4
dose: 15.0 mg/kg/injection, schedule: Q01DX001 (ip), vehicle: saline + alcohol
  survivor count: 8 of 8
dose: 16.0 mg/kg/injection, schedule: Q01DX001 (ip), vehicle: saline + alcohol
  survivor count: 4 of 4
dose: 17.0 mg/kg/injection, schedule: Q01DX001 (ip), vehicle: saline + alcohol
  survivor count: 4 of 4
dose: 20.0 mg/kg/injection, schedule: Q01DX001 (ip), vehicle: saline + alcohol
  survivor count: 10 of 10 (2×)
dose: 20.0 mg/kg/injection, schedule: Q04DX003 (ip), vehicle: saline + alcohol
  survivor count: 4 of 4
dose: 29.0 mg/kg/injection, schedule: Q01DX001 (ip), vehicle: saline + alcohol
  survivor count: 4 of 4
dose: 30.0 mg/kg/injection, schedule: Q01DX001 (ip), vehicle: saline + alcohol
  survivor count: 10 of 10 (2×), 8 of 8, 9 of 9
dose: 32.0 mg/kg/injection, schedule: Q01DX001 (ip), vehicle: saline + alcohol
  survivor count: 4 of 4
dose: 40.0 mg/kg/injection, schedule: Q01DX001 (ip), vehicle: saline + alcohol
  survivor count: 10 of 10 and 9 of 9
dose: 40.0 mg/kg/injection, schedule: Q04DX003 (ip), vehicle: saline + alcohol
  survivor count: 4 of 4
dose: 48.0 mg/kg/injection, schedule: Q01DX001 (ip), vehicle: saline + alcohol
  survivor count: 4 of 4
dose: 60.0 mg/kg/injection, schedule: Q01DX001 (ip), vehicle: saline + alcohol
  survivor count: 8 of 8
dose: 64.0 mg/kg/injection, schedule: Q01DX001 (ip), vehicle: saline + alcohol
  survivor count: 4 of 4
dose: 80.0 mg/kg/injection, schedule: Q01DX001 (ip), vehicle: saline + alcohol
  survivor count: 4 of 4

## Cc1ccc(N=NN(C)C)cc1
dose: 59.0 mg/kg/injection, schedule: Q01DX009 (ip), vehicle: Klucel (hydroxypropylcellulose) (HPC)
  survivor count: 10 of 10
dose: 89.0 mg/kg/injection, schedule: Q01DX009 (ip), vehicle: Klucel (hydroxypropylcellulose) (HPC)
  survivor count: 9 of 10
dose: 133.0 mg/kg/injection, schedule: Q01DX009 (ip), vehicle: Klucel (hydroxypropylcellulose) (HPC)
  survivor count: 5 of 10
dose: 200.0 mg/kg/injection, schedule: Q01DX009 (ip), vehicle: Klucel (hydroxypropylcellulose) (HPC)
  survivor count: 0 of 10
dose: 300.0 mg/kg/injection, schedule: Q01DX009 (ip), vehicle: Klucel (hydroxypropylcellulose) (HPC)
  survivor count: 0 of 10

## CC(=O)Nc1nc(Br)c2ccccc2c1-c1ccc(N)cc1
dose: 1.0 mg/kg/injection, schedule: Q01DX001 (ip), vehicle: DMSO
  survivor count: 2 of 2
dose: 10.0 mg/kg/injection, schedule: Q01DX001 (ip), vehicle: DMSO
  survivor count: 2 of 2
dose: 100.0 mg/kg/injection, schedule: Q01DX001 (ip), vehicle: DMSO
  survivor count: 2 of 2

## OCN(CO)c1nc(CCC(Cl)(Cl)Cl)nc(N(CO)CO)n1
dose: 1.0 mg/kg/injection, schedule: Q01DX001 (ip), vehicle: distilled water + Tween-80
  survivor count: 2 of 2
dose: 10.0 mg/kg/injection, schedule: Q01DX001 (ip), vehicle: distilled water + Tween-80
  survivor count: 2 of 2
dose: 100.0 mg/kg/injection, schedule: Q01DX001 (ip), vehicle: distilled water + Tween-80
  survivor count: 2 of 2
